Results are given in words; binding and its absence hold for the method and conditions named. In cells and extracts the contact can be indirect. Some binding calls cover weakened binding; strength is not graded here. Where a sequence is shown, tags or fusion partners need not be part of it.

Amino acid sequences for entries named in this document (tags omitted). Residues count along the entry.
UniProt O95831, residues 102-613: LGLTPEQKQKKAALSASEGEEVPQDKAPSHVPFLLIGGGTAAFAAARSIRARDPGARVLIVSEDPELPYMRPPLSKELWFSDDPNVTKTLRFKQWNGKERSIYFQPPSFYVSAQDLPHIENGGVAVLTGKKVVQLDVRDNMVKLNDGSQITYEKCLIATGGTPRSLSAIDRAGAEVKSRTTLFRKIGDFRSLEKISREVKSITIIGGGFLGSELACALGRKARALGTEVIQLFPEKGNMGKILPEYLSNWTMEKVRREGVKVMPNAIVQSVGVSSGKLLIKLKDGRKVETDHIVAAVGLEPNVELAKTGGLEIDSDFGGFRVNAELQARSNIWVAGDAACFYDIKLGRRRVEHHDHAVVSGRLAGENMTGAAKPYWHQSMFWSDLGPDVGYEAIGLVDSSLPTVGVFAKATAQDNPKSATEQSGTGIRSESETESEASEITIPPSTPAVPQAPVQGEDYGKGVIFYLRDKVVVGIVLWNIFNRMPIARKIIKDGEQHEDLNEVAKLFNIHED

Test in all cases: co-IP; native immunoprecipitation against the HA tag of MIA40-HA variants (anti-HA agarose beads, overnight, 4 °C) from HEK293 cells; cells pre-treated with 20 mM NEM; lysis in 100 mM NaPi pH 8.1, 1% Triton X-100; washes with 250 mM NaCl; immunoblot against AIFM1
The target in assay [1] is T1, MIA40^Δ108, HA-tagged (lacking amino acid residues 108-142) (human) (UniProt Q8N4Q1).
T1 sequence: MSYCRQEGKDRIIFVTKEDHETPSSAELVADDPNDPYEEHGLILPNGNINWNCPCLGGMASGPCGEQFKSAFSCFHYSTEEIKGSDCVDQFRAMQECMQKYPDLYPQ

The target in assay [2] is T2, MIA40^Δ40, HA-tagged (lacking the first 40 amino acids) (human) (UniProt Q8N4Q1).
T2 sequence: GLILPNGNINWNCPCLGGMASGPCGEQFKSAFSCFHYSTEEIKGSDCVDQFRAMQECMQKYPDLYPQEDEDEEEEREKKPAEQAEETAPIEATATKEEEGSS

Assay [3] has as its target T3, MIA40 wildtype, HA-tagged (MIA40^WT-HA) (human) (UniProt Q8N4Q1).
T3 sequence: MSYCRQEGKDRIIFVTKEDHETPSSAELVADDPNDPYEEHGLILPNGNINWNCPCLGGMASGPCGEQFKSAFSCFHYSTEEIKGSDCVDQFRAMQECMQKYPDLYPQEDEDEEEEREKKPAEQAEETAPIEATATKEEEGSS

For the substance “apoptosis-inducing factor (AIFM1) (from UniProt O95831 102-613)”, the binding result in assay [1] is “binds”; in assay [2], “no binding”; in assay [3], “binds”.

For the origin of these results see article PMC7412830.
